Data: publication PMC10392025
Results are given in words; binding and its absence hold for the method and conditions named. Binding seen in cells or lysates may run through a third protein. A yes stands for co-enrichment or nearness to the bait. Other partners may have been found. Where a sequence is shown, tags or fusion partners need not be part of it.

Sequences of proteins named here, by UniProt entry; tags and fusion partners are left off.
UniProt Q92769: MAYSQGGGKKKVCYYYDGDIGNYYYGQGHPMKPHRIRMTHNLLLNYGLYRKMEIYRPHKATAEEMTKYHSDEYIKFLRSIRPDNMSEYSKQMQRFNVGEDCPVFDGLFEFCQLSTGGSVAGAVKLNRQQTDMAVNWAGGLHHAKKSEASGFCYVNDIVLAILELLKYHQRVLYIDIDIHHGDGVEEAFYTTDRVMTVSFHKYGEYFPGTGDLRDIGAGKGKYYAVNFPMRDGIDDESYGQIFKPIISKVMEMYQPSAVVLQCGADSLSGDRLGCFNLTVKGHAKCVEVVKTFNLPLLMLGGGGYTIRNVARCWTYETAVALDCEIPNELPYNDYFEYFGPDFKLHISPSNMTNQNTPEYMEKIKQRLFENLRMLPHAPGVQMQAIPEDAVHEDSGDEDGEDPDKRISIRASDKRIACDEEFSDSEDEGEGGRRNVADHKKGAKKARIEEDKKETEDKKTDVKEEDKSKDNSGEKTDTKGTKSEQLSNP

Biological target: T1, FLAG-tagged XPO7 protein (UniProt Q9UIA9)
T1 sequence: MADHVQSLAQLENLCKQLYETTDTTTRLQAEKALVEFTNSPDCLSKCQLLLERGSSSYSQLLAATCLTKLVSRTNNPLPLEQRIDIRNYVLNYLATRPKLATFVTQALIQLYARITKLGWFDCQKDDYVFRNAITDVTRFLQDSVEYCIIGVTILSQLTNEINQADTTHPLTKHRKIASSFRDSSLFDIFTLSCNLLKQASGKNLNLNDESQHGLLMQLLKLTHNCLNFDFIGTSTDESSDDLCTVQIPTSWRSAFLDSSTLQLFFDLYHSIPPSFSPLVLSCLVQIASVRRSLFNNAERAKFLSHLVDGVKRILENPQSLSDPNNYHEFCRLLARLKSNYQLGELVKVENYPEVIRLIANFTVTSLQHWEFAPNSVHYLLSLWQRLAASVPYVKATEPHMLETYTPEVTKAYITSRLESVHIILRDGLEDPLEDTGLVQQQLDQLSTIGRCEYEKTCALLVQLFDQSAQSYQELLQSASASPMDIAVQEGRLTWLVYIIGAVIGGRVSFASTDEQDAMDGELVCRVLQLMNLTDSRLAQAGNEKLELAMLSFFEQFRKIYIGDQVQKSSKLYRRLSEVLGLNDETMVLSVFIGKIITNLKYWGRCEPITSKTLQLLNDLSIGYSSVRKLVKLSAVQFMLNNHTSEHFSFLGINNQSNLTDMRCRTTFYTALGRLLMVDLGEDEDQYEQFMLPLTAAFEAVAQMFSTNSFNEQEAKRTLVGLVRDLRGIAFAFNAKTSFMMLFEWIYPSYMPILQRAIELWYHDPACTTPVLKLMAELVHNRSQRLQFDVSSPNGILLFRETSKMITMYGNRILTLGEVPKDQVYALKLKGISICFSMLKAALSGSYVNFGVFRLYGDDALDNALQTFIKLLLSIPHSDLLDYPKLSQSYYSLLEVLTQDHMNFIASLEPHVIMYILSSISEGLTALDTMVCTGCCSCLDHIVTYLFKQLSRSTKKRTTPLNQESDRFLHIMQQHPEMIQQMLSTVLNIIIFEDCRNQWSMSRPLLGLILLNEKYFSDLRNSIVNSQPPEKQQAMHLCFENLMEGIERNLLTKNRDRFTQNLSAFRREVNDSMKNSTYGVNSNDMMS
Assay: affinity purification with mass spectrometry; FLAG-tagged XPO7 ectopically expressed in HEK293T cells; Co-IP with FLAG antibody followed by mass spectrometry (IP-MS)

HDAC2 (histone deacetylase 2) in HEK293T cells (from UniProt Q92769 1-488)
binding: binds
